Measured values: publication PMC8012719 (Frontiers in Pharmacology, 2021)
Structures can show the parent of a compound that is named as a salt.

Experiments:
Test in all cases: microbe, parasite or virus in culture
[1] = system: pVSV (pseudovirus expressing a vesicular stomatitis virus envelope glycoprotein); format: cell-based
[2] = system: pRABV (pseudovirus enveloped by the RABV glycoprotein G); format: cell-based, rabies virus
RABV CVS strain = format: cell-based; details: Lyssavirus rabies, 24 h, read-out: CVS EC50

CNCCCC12CCC(c3ccccc31)c1ccccc12 [Maprotiline hydrochloride]
EC50pVSV/EC50pRABV [1]: 4.7 | EC50 ([1]; Pseudovirus, HEK-293T, read-out: pVSV EC50): 32.5 µM | SI pRABV [2]: 7.5 | EC50 ([2]; Pseudovirus, HEK-293T, 48 h, read-out: pRABV EC50): 6.9 µM | EC50 (RABV CVS strain): 44.2 µM
